Experimental data as given in paper PMC6010280.
No constants are given. Whether binding was seen depends on the method and setting. Binding seen in cells or lysates may run through a third protein. Here binding means that the protein was enriched with, or labelled near, the bait; the list need not be complete. For some of these results: No binding means not detected with the bait.

T1: intein-BHMT (betaine homocysteine S-methyltransferase) (R. norvegicus) (UniProt O09171)
T1 sequence: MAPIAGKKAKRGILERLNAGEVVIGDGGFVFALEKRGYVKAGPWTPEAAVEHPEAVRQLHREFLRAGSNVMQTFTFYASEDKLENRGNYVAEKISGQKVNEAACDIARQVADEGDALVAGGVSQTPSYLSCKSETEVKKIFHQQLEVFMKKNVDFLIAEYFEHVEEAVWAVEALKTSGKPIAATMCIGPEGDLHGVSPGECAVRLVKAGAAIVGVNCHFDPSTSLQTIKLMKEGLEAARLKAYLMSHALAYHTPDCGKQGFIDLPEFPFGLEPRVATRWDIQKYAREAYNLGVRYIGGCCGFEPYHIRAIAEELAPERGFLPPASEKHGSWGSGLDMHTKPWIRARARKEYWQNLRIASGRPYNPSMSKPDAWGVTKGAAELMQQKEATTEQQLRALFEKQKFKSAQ

B1: aldolase b protein (ALDOB) (liver cytosol) (protein, UniProt P00884 1-364)
chain: MAHRFPALTSEQKKELSEIAQRIVANGKGILAADESVGTMGNRLQRIKVENTEENRRQFRELLFSVDNSISQSIGGVILFHETLYQKDSQGKLFRNILKEKGIVVGIKLDQGGAPLAGTNKETTIQGLDGLSERCAQYKKDGVDFGKWRAVLRISDQCPSSLAIQENANALARYASICQQNGLVPIVEPEVLPDGDHDLEHCQYVSEKVLAAVYKALNDHHVYLEGTLLKPNMLTAGHACTKKYTPEQVAMATVTALHRTVPAAVPSICFLSGGMSEEDATLNLNAIYRCPLPRPWKLSFSYGRALQASALAAWGGKAANKKATQEAFMKRAVANCQAAQGQYVHTGSSGAASTQSLFTASYTY
B2: ornithine transcarbamylase (liver cytosol) (protein, UniProt P00481 33-354)
chain: SQVQLKGRDLLTLKNFTGEEIQYMLWLSADLKFRIKQKGEYLPLLQGKSLGMIFEKRSTRTRLSTETGFALLGGHPSFLTTQDIHLGVNESLTDTARVLSSMTDAVLARVYKQSDLDILAKEATIPIVNGLSDLYHPIQILADYLTLQEHYGSLKGLTLSWIGDGNNILHSIMMSAAKFGMHLQAATPKGYEPDPNIVKLAEQYAKENGTRLSMTNDPLEAARGGNVLITDTWISMGQEDEKKKRLQAFQGYQVTMKTAKVAASDWTFLHCLPRKPEEVDDEVFYSPRSLVFPEAENRKWTIMAVMVSLLTDYSPVLQKPKF
B3: alpha-2u globulin PGCL1/Major urinary protein (liver cytosol) (protein, UniProt P02761 20-181)
chain: EEASSTRGNLDVAKLNGDWFSIVVASNKREKIEENGSMRVFMQHIDVLENSLGFKFRIKENGECRELYLVAYKTPEDGEYFVEYDGGNTFTILKTDYDRYVMFHLINFKNGETFQLMVLYGRTKDLSSDIKEKFAKLCEAHGITRDNIIDLTKTDRCLQARG
B4: glutathione-S-transferase alpha type 2 (liver cytosol) (protein, UniProt P04903 1-222)
chain: MSGKPVLHYFNARGRMECIRWLLAAAGVEFEEKLIQSPEDLEKLKKDGNLMFDQVPMVEIDGMKLAQTRAILNYIATKYDLYGKDMKERALIDMYSEGILDLTEMIIQLVICPPDQREAKTALAKDRTKNRYLPAFEKVLKSHGQDYLVGNRLTRVDIHLLELLLYVEEFDASLLTSFPLLKAFKSRISSLPNVKKFLQPGSQRKPAMDAKQIEEARKVFKF
B5: Phospholipid phosphatase-related protein type 1 (protein, UniProt Q6WAY2 1-325)
chain: MAVENNTQRSYSIIPCFIFVELVIMAGTVLLAYYFECTDTFQVHIQGFFCQDGDLMKPYPGTEEESFISPLVLYCVLAATPTAIIFIGEISMYFIKSTRESLIAEEKMILTGDCCYLSPLLRRIVRFIGVFAFGLFATDIFVNAGQVVTGHLTPYFLTVCQPNYTSTDCRAHHQFINNGNICTGDLEVIEKARRSFPSKHAALSIYSALYATMYITSTIKTKSSRLAKPVLCLGDLCTAFLTGLNRVSEYRNHCSDVIAGFILGTAVALFLGMCVVHNFKGTQGSASKPKPEDPRGVPLMAFPRIESPLETLSAQNHSASMTEVT
B6: Pre-mRNA splicing factor 6 (protein, UniProt A1A5S1 1-941)
chain: MNKKKKPFLGMPAPLGYVPGLGRGATGFTTRSDIGPARDANDPVDDRHAPPGKRTVGDQMKKNQAADDDDEDLNDTNYDEFNGYAGSLFSSGPYEKDDEEADAIYAALDKRMDERRKERREQREKEEIEKYRMERPKIQQQFSDLKRKLAEVTEEEWLSIPEVGDARNKRQRNPRYEKLTPVPDSFFAKHLQTGENHTSVDPRQTQFGGLNTPYPGGLNTPYPGGMTPGLMTPGTGELDMRKIGQARNTLMDMRLSQVSDSVSGQTVVDPKGYLTDLNSMIPTHGGDINDIKKARLLLKSVRETNPHHPPAWIASARLEEVTGKLQVARNLIMKGTEMCPKSEDVWLEAARLQPGDTAKAVVAQAVRHLPQSVRIYIRAAELETDIRAKKRVLRKALEHVPNSVRLWKAAVELEEPEDARIMLSRAVECCPTSVELWLALARLETYENARKVLNKARENIPTDRHIWITAAKLEEANGNTQMVEKIIDRAITSLRANGVEINREQWIQDAEECDRAGSVATCQAVMRAVIGIGIEEEDRKHTWMEDADSCVAHNALECARAIYAYALQVFPSKKSVWLRAAYFEKNHGTRESLEALLQRAVAHCPKAEVLWLMGAKSKWLAGDVPAARSILALAFQANPNSEEIWLAAVKLESENNEYERARRLLAKARSSAPTARVFMKSVKLEWVLGNITAAQELCEEALRHYEDFPKLWMMKGQIEEQGELMERAREAYNQGLKKCPHSTPLWLLLSRLEEKIGQLTRARAILEKSRLKNPKNPGLWLESVRLEYRAGLKNIANTLMAKALQECPNSGILWSEAVFLEARPQRKTKSVDALKKCEHDPHVLLAVAKLFWSERKITKAREWFHRTVKIDSDLGDAWAFFYKFELQHGTEEQQEEVRKRCENAEPRHGELWCAVSKDITNWQRKIGEILVLVAARIKNTF
B7: Tyrosine-protein phosphatase non-receptor type 23, PTPN23 (protein, UniProt O88902 1-1499)
chain: LNVNLMLGQAQECLLEKSMLDNRKSFLVARISAQVVDYYKEACRALENPDTASLLGRIQKDWKKLVQMKIYYFAAVAHLHMGKQAEEQQKFGERVAYFQSALDKLNEAIKLAKGQPDTVQDALRFAMDVIGGKYNSAKKDNDFIYHEAVPALDTLQPVKGAPLVKPLPVNPTDPAVTGPDIFAKLVPMAAHEASSLYSEEKAKLLREMLAKIEDKNEVLDQFMDSMQLDPDTVDNLDAYNHIPPQLMEKCAALSVRPDTVKNLVQSMQVLSGVFTDVEASLKDIRDLLEEDELQEQKLQETLGQAGAGPGPSVTKAELGEVRREWAKYTEVHEKASFTNSELHRAMNLHVGNLRLLSGPLDQVRAALPTPALTPEDKAVLQNLKRILAKVQEMRDQRVSLEQQLRELIQKDDITASLVTTDHSEMKKLFEEQLKKYDQLKVYLEQNLAAQDNVLRALTEANVQYAAVRRVLSELDQKWNSTLQTLVASYEAYEDLMKKSQEGKDFYADLESKVAALLERAQSLCRAQEAARQQLLDRELKKKAPPPRPTAPKPLLSRREEGEAAEAGDQPEELRSLPPDMMAGPRLPDPFLGTAAPLHFSPGPFPGSTGPATHYLSGPLPPGTYSGPTQLMQPRAAVPMAPGPVLYPAPVYTSELGLVPRSSPQHGIVSSPYAGVGPPQPIVGLPSAPPPQFSGPELAMDVRPATTTVDSVQAPISSHMALRPGPAPAPPQPCFPVPQPVPQSVPQPQPLPTPYTYSIGTKQHLTGPLPQHHFPPGIPTSFPAPRIGPQPPPQLQPQPQPQPQPQPPPQPQPQPQPQPQPQPQPQPQRPVFGPQPTQQPLPFQHPHLFPSQAPGILTPPPPYPFTPQPGVLGQPPPTRHTQLYPGPPPDTLPPHSGALPFPSPGPPHPHPTLAYGPAPSPRPLGPQATPVSIRGPPPANQPAPSPHLVPSPAPSPGPGPVPSRPPTAEPPPCLRRGAAAADLLSSSPESQHGGTQPPGGGQPLLQPTKVDAAERPTAQALRLIEQDPYEHPERLQKLQQELESFRGQLGDAGALDAVWRELQEAQEHDARGRSIAIARCYSLKNRHQDVMPYDSNRVVLRSGKDDYINASCVEGLSPYCPPLVATQRPLPGTAADFWLMVHEQKVSVIVMLVSEAEMEKQKVARYFPIERGQPMVHGALSVALSSVRTTDTHVERVLSLQFRDQSLKRSLVHLHFPTWPELGLPDSPGNLLRFIQEVHAHYLHQRPLHTPIVVHCSSGVGRTGAFALLYAAVQEVEAGSRIPELPQLVRRMRQQRKHMLQEKLHLKFCHEALVRHVEQVLQRHGVPPPGKPVASMSVSQKSHLPQDSQDLVLGGDVPISSIQATIAKLSIRPLGGLDSPAASLPSLVEPPGLPPASLPEPTPAPPSSPPPPSSPLPEPPQPEEEPSVPEAPSLGPPSSSLELLASLTPEAFSLDSSLRGKQRMSKQNFLQAHNGQGLRAAQPTDDPLSLLDPLWTLNKT

target: T1, intein-BHMT (betaine homocysteine S-methyltransferase) (R. norvegicus); assay: affinity purification with mass spectrometry; same columns; all eluates of the intein-BHMT column compared with those of the bead-only and intein columns; only the target purified

binding | Binder
no binding | B1
no binding | B2
no binding | B3
no binding | B4

target: T1, intein-BHMT (betaine homocysteine S-methyltransferase) (R. norvegicus); assay: affinity purification with mass spectrometry; same intein-BHMT chitin column after the salt gradient; proteins recovered together with BHMT upon intein excision with 30 mM 2-mercaptoethanol, 48 h at 23°C (strong interactors); LC-MS/MS; only the target purified

binding | Binder
binds | B5
binds | B6
binds | B7

target: T1, intein-BHMT (betaine homocysteine S-methyltransferase) (R. norvegicus); assay: affinity purification with mass spectrometry; intein-BHMT held on chitin beads; rat liver cytosol first passed over a bead-only and an intein column; 10 mM sodium phosphate pH 7.4, 5 mM EDTA, 0.1 mM EGTA, 4°C; bound proteins eluted with a 0-500 mM NaCl gradient (peak at 50-100 mM NaCl); LC-MS/MS; only the target purified

binding | Binder
binds | B5
binds | B6
binds | B7
